# According to PubChem BioAssay AID743255 (National Center for Advancing Translational Sciences (NCATS), 2014):
# Amino acid sequences for entries named in this document (tags omitted). A change or cut given only in a name is not applied to a line headed by its entry.
# UniProt O94782: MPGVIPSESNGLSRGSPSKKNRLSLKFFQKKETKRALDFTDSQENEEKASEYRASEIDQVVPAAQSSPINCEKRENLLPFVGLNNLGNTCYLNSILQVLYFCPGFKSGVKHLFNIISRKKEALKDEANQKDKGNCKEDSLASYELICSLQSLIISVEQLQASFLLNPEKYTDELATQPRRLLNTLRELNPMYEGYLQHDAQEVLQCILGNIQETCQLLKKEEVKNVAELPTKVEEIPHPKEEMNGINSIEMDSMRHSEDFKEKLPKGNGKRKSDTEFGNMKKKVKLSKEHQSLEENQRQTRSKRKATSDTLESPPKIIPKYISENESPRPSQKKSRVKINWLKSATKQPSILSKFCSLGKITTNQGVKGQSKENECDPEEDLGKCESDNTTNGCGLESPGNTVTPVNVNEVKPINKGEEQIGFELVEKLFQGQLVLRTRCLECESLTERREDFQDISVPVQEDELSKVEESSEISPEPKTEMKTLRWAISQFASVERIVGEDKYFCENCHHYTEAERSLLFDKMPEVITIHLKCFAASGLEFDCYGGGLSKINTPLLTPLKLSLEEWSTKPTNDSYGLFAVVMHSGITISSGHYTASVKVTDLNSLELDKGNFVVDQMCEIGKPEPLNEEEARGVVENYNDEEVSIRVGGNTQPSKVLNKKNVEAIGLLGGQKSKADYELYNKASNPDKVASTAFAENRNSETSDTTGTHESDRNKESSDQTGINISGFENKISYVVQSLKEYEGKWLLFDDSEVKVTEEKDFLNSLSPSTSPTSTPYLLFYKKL
# Several values for one entry are separate records, joined by “and”; a condition that tells them apart may be missing. Equal values may be shown once. In all, about 390,000 compounds went through this assay and about 910 (0.23%) were called active. The inconclusive results got no clear call from the source; some entries with a clear call stand among them for comparison. Calls follow the shape of the dose curve; as a rule, active = well fitted inhibition curve with a large enough effect; inconclusive = small, poorly fitted or top-dose-only effect; inactive = no such curve, though single readings can be large or run the other way. A potency beside an inconclusive call is a rough fit, not a confirmed value.
# Molecular target: Ubiquitin carboxyl-terminal hydrolase 1 (Homo sapiens) (UniProt O94782)
# Test: Inhibitors of USP1/UAF1: Primary Screen; also: nearly all actives have a fitted effect of over 60% in size
# Details: recombinant USP1/UAF1, Ub-Rhodamine cleavage fluorescence; activity change, negative = inhibition: at 57.1 µM (top of the series)
# Outline: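 High-throughput fluorogenic screen: 1nM USP1/UAF1 complex, Ub-Rho substrate 150nM final, 50mM HEPES pH 7.8 with 0.5mM EDTA, 0.1 mg/ml BSA, 1mM TCEP and 0.01% Tween-20.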
# % is scaled to controls: 0 for no effect and ±100 for the full control effect; potency is read from the fitted curve at half-maximal effect.
Structure (SMILES),Potency,"activity change, negative = inhibition"
COc1ccc(-c2cc3ccc(O)c(CN4CCN(C)CC4)c3oc2=O)cc1OC,"inconclusive: 0.631 µM [inhibitor, full curve, poor fit]",
CCOC(=O)c1cnc(-n2nc(C)cc2C)nc1N(CC)CC,inactive,
COc1ccc(S(=O)(=O)c2nnn(-c3cccc(Cl)c3)c2N)cc1,inactive,
Cc1ccc2c(CC(=O)Nc3c(C)n(C)n(-c4ccccc4)c3=O)coc2c1,inactive,
CCN(CC)Cc1nc2nc(Cl)c(Cl)nc2[nH]1,"inconclusive: 50.1 µM [inhibitor, partial curve]",
COc1ccc(CNC(=O)C(C#N)c2nc3ccccc3nc2N2CCN(C)CC2)cc1 (centres undefined),inactive,
COc1ccccc1Nc1nc(-c2ccccc2)c(CC(=O)O)s1,"inconclusive: 70.8 µM [inhibitor, partial curve, poor fit]",
CCN1C(=O)[C@H]2[C@@H](c3ccc(C)cc3)N[C@]3(CCCN(Cc4ccco4)C3=O)[C@H]2C1=O,"inconclusive: 0.447 µM [inhibitor, full curve, poor fit]",
Cc1cc(N2CCN(C)CC2)nc2ccc(NC(=O)Nc3ccc(F)cc3F)cc12,inactive,
NC(=O)C1CCN(C2=C(Cl)C(=O)c3ccccc3C2=O)CC1,active: 31.6 µM,
O=C(NNC(=O)c1ccc2ccccc2c1)c1cccc(Cl)c1,"inconclusive: 50.1 µM [inhibitor, partial curve, poor fit]",
CC(=O)C1=C(O)CC(C)(C)CC1=NCc1nc2ccccc2[nH]1,inactive,
CC(=O)NCc1ccc(S(=O)(=O)N/N=C/c2ccc(N(C)C)cc2)cc1,"inconclusive: 7.94 µM [inhibitor, single point]",
COc1cccc(-c2ccc3c(N)c(C(=O)c4ccc(F)cc4)sc3n2)c1,"inconclusive: 3.55 µM [inhibitor, full curve, poor fit]",
O=C1CN(C(=O)COC(=O)c2ccc([N+](=O)[O-])s2)c2ccccc2N1,"inconclusive: 39.8 µM [inhibitor, partial curve, poor fit]",
CCCCOC(=O)c1ccc(NC2=NS(=O)(=O)c3ccccc32)cc1,inactive,
O=C(Nc1ccc(Cl)c(Cl)c1)OCCNC(=O)c1ccncc1,inactive,
C#Cc1ccc(CN2CCC(Oc3cc(C(=O)NC4CC4)ccc3OC)CC2)cc1,inactive,
CCc1ccc2c(c1)c1nc(C)sc1n2CC,inactive,
COC(=O)c1ccc([C@H]2Nc3ccc(S(=O)(=O)Nc4ccc(F)cc4)cc3[C@H]3C=CC[C@H]32)cc1,inactive,
Cc1ccc(-n2nnnc2SCC(=O)N2CCc3ccccc3C2)cc1,"inconclusive: 31.6 µM [inhibitor, partial curve]",
COC/C=C/C1=CC2=CC(=O)C(C)(OC(=O)c3cnc4ccccc4n3)C(=O)C2=CN1CC1CC1 (centres undefined),"inconclusive: 5.01 µM [inhibitor, full curve]",
CCOC(=O)c1cc(-c2ccc(OC)cc2)nn1-c1ccccc1C(=O)O,"inconclusive: 39.8 µM [inhibitor, partial curve, poor fit]",

# 2 compounds picked at random from the list so far:
Structure (SMILES),Potency,"activity change, negative = inhibition"
COc1ccc(S(=O)(=O)c2nnn(-c3cccc(Cl)c3)c2N)cc1,inactive,
CCN(CC)Cc1nc2nc(Cl)c(Cl)nc2[nH]1,"inconclusive: 50.1 µM [inhibitor, partial curve]",

# Further compounds follow:

Structure (SMILES),Potency,"activity change, negative = inhibition"
Cn1cccc1C(=O)OCC(=O)NC1CCS(=O)(=O)C1 (centres undefined),"inconclusive: 0.708 µM [inhibitor, full curve, poor fit]",
Nc1ncnc2c1ncn2[C@@H]1O[C@H](COP(=O)(O)O)[C@@H](O)[C@H]1O,"inconclusive: 28.2 µM [inhibitor, single point]",
O=C(O)COc1ccc(/C=C/C(=O)c2ccc(C3CCCCC3)cc2)cc1,"inconclusive: 39.8 µM [inhibitor, partial curve, poor fit]",
COc1ccccc1NC(=O)COc1ccc(Br)cc1CNC1CCCC1,inactive,
O=c1ccc2c(-c3ccccc3S(=O)(=O)O)c3ccc(O)c(O)c3oc-2c1O,"inconclusive: 31.6 µM [inhibitor, partial curve]",
Cc1onc(-c2c(Cl)cccc2Cl)c1C(=O)NNC(=O)c1c(-c2c(Cl)cccc2Cl)noc1C,"inconclusive: 50.1 µM [inhibitor, partial curve, poor fit]",
CCN(CC)S(=O)(=O)c1cccc(-c2n[nH]c(=S)n2/N=C/c2ccc(Br)cc2)c1,inactive,
CCOC(=O)c1cccc(NC(=O)CCc2nc(-c3ccccc3F)no2)c1,inactive,
Cc1cc(/C=N/NC(N)=S)c(C)n1-c1ccc(Cl)cc1,inactive,
CCOc1ccccc1NC(=O)c1cc(=O)[nH]c2ccc(S(=O)(=O)N3CCOCC3)cc12,"inconclusive: 50.1 µM [inhibitor, partial curve, poor fit]",
O=C(/C=C/c1ccccc1Cl)Nc1cccc(O)c1,inactive,
CCN1CCc2c(sc(-n3cccc3)c2C(C)NC(=O)Nc2cc(Cl)c(OC)cc2OC)C1 (centres undefined),"inconclusive: 28.2 µM [inhibitor, partial curve]",
O=C(CSc1nc(-c2ccccc2)no1)N1CCN(c2ccccc2)CC1,"inconclusive: 0.282 µM [inhibitor, full curve, poor fit]",
O=c1cc(NCc2ccco2)[nH]c(=O)n1-c1ccc(Br)cc1,"inconclusive: 44.7 µM [inhibitor, single point]",
CC(Sc1ccccc1F)C(=O)Nc1ccc2c(c1)OCCO2 (centres undefined),inactive,
CCOC(=O)Cn1c(S(=O)(=O)Cc2cccc(F)c2)nc(-c2ccccc2)c1-c1ccccc1,inactive,
CCNC(=S)NNC(=O)c1cc(-c2cccc(OC)c2)nc2ccccc12,inactive,
CCCCN(CC)C(=O)Cn1c(=O)sc2ccccc21,"inconclusive: 5.01 µM [inhibitor, single point]",
O=C(CCNC(=O)c1ccc([N+](=O)[O-])cc1)NNC(=O)c1ccccc1F,inactive,
c1ccc2cc(-c3cc4ccccn4c3)ccc2c1,inactive,
CC1=C(/C=C/C(C)=C/C=C/C(C)=C/C(=O)Nc2ccc(O)cc2)C(C)(C)CCC1,"inactive and inconclusive: 28.2 µM [inhibitor, single point]",
CCn1c2ccc(C)cc2c2nnc(SCCN3CCOCC3)nc21,,inconclusive: -31.9% [inhibitor]
COc1cc(NS(=O)(=O)c2ccc(Nc3nc(-c4ccccn4)cs3)cc2)nc(OC)n1,"inconclusive: 35.5 µM [inhibitor, partial curve, poor fit]",

# As a short view, part of the list above.
Structure (SMILES),Potency,"activity change, negative = inhibition"
CCN(CC)S(=O)(=O)c1cccc(-c2n[nH]c(=S)n2/N=C/c2ccc(Br)cc2)c1,inactive,
CCOC(=O)c1cccc(NC(=O)CCc2nc(-c3ccccc3F)no2)c1,inactive,
Cc1cc(/C=N/NC(N)=S)c(C)n1-c1ccc(Cl)cc1,inactive,
CCOc1ccccc1NC(=O)c1cc(=O)[nH]c2ccc(S(=O)(=O)N3CCOCC3)cc12,"inconclusive: 50.1 µM [inhibitor, partial curve, poor fit]",
O=C(/C=C/c1ccccc1Cl)Nc1cccc(O)c1,inactive,
CCN1CCc2c(sc(-n3cccc3)c2C(C)NC(=O)Nc2cc(Cl)c(OC)cc2OC)C1 (centres undefined),"inconclusive: 28.2 µM [inhibitor, partial curve]",
O=C(CSc1nc(-c2ccccc2)no1)N1CCN(c2ccccc2)CC1,"inconclusive: 0.282 µM [inhibitor, full curve, poor fit]",
O=c1cc(NCc2ccco2)[nH]c(=O)n1-c1ccc(Br)cc1,"inconclusive: 44.7 µM [inhibitor, single point]",
CC(Sc1ccccc1F)C(=O)Nc1ccc2c(c1)OCCO2 (centres undefined),inactive,
CCOC(=O)Cn1c(S(=O)(=O)Cc2cccc(F)c2)nc(-c2ccccc2)c1-c1ccccc1,inactive,
CCNC(=S)NNC(=O)c1cc(-c2cccc(OC)c2)nc2ccccc12,inactive,
CCCCN(CC)C(=O)Cn1c(=O)sc2ccccc21,"inconclusive: 5.01 µM [inhibitor, single point]",
O=C(CCNC(=O)c1ccc([N+](=O)[O-])cc1)NNC(=O)c1ccccc1F,inactive,
c1ccc2cc(-c3cc4ccccn4c3)ccc2c1,inactive,
CC1=C(/C=C/C(C)=C/C=C/C(C)=C/C(=O)Nc2ccc(O)cc2)C(C)(C)CCC1,"inactive and inconclusive: 28.2 µM [inhibitor, single point]",
CCn1c2ccc(C)cc2c2nnc(SCCN3CCOCC3)nc21,,inconclusive: -31.9% [inhibitor]

# Additional results

Structure (SMILES),Potency,"activity change, negative = inhibition"
Cc1cc(NC(=O)c2cccs2)n(-c2nc3ccccc3[nH]2)n1,"inconclusive: 17.8 µM [inhibitor, partial curve]",
CC(=O)c1cccc(NC(=O)c2ccc(Cl)c(S(=O)(=O)N3CCOCC3)c2)c1,"inconclusive: 3.16 µM [inhibitor, full curve, poor fit]",
O=C(Nn1cnc2ccccc2c1=O)C1CCCCC1,,inconclusive: -22.5% [inhibitor]
CCCc1cc(=O)[nH]c(Nc2ccccc2O)n1,"inconclusive: 5.01 µM [inhibitor, full curve, poor fit]",
O=C(NCCn1cc(SCc2ccccc2)c2ccccc21)c1cccs1,inactive,
COc1ccc(-c2nc3scc(CCNS(=O)(=O)c4c(C)cc(C)cc4C)n3n2)cc1OC,inactive,
Cc1ccc2occ(CC(=O)Nc3ccc(S(=O)(=O)N4CCC(C)CC4)cc3)c2c1,"inconclusive: 1 µM [inhibitor, full curve, poor fit]",
C=C(C)C(=O)Nc1cccnc1Oc1ccc(F)cc1F,"inconclusive: 1.41 µM [inhibitor, partial curve]",
CCC(C)Sc1ccc([C@H]2N[C@@](Cc3ccccc3)(C(=O)OC)[C@H]3C(=O)N(CC)C(=O)[C@@H]23)cc1 (some centres undefined),"inconclusive: 31.6 µM [inhibitor, partial curve]",
CC(C)c1ccc(NC(=O)CCS(=O)(=O)c2ccc3c(c2)CC(=O)N3C)cc1,inactive,
COc1ccc([C@@H]2[C@@H]3C(=O)N(C(C)(C)C)C(=O)[C@@H]3[C@]3(Cc4ccc(Cl)cc4)C(=O)N(c4ccc(OC)cc4)C(=O)N23)cc1,"inconclusive: 0.708 µM [inhibitor, full curve]",
CCOc1cc(NC(=S)Nc2ccccc2OC)c(OCC)cc1NC(=O)c1ccccc1C,inactive,
Cc1c(C=O)c2ccccc2n1CC(=O)NCc1ccc2c(c1)OCO2,inactive,
COc1ccc(OC)c2sc(N3CCN(C(=O)C4COc5ccccc5O4)CC3)nc12 (centres undefined),inactive,
COc1ccccc1NC(=O)c1cn(C)c(=O)c2cc(OC)c(OC)cc12,"inconclusive: 35.5 µM [inhibitor, partial curve]",
CCOP(=O)(OCC)c1nc(-c2ccccc2Cl)oc1N1CCOCC1,inactive,
Cc1ccc(C2c3c(oc4ccccc4c3=O)C(=O)N2c2nnc(C)s2)cc1 (centres undefined),"inconclusive: 1 µM [inhibitor, full curve, poor fit]",
COCCCn1c(N)c(-c2nc3ccccc3n2C)c2nc3ccccc3nc21,"inconclusive: 28.2 µM [inhibitor, partial curve]",
CCOc1cc(-c2ccc(OC(=O)c3ccccc3)c(OC)c2)cc(=O)c2c(C)oc(C)c12,"inconclusive: 8.91 µM [inhibitor, full curve]",
CCC(C)NC(=O)Cn1c(=O)n(Cc2ccc(C(=O)NCc3ccc(C)cc3)cc2)c(=O)c2ccccc21 (centres undefined),"inconclusive: 100 µM [inhibitor, partial curve]",
CCOC(=O)CCN(Cc1sccc1C)S(=O)(=O)c1ccc(F)cc1,"inconclusive: 35.5 µM [inhibitor, single point]",
CC(=O)OCCNc1cc(N2CCN(C)CC2)c2noc3c2c1C(=O)c1ccccc1-3,"inconclusive: 25.1 µM [inhibitor, single point]",
CNC(=S)N(CCc1c(C)[nH]c2ccc(C)cc12)Cc1cc(OC)c(OC)c(OC)c1,"inconclusive: 35.5 µM [inhibitor, single point]",
